Measured values published in PMC13649712.
These are yes or no findings as the source states them, for the method shown. Some entries that bind do so weakly or less than the wild type.

Target: T1, mouse CRY1 1-496 (PHR) (mouse) (UniProt P97784)
T1 sequence: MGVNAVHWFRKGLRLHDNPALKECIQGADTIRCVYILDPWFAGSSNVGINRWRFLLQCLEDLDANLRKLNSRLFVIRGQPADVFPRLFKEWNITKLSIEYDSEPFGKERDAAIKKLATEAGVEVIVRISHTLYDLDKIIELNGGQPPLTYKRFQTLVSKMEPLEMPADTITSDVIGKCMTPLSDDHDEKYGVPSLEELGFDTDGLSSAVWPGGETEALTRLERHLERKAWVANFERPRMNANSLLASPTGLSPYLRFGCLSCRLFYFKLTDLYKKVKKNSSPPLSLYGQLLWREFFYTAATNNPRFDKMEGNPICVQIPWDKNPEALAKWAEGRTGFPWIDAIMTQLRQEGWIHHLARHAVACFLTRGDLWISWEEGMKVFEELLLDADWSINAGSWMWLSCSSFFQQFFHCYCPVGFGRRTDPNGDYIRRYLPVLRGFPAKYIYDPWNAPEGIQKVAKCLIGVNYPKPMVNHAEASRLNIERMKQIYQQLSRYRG
Assay: SEC; PER1 1013-1291, CRY1 1-496 or CRY2 1-512 and WDR5 22-334: equimolar mixture (60 min, 4 °C) or PER1/WDR5 complex pre-formed overnight and then equimolar CRY added for 60 min; dimeric complexes run for comparison; S200 10/300; 25 mM HEPES pH 7.5, 300 mM NaCl, 5% glycerol, 1 mM DTT; both purified

## mouse PER1 1013-1291 (from UniProt O35973 1013-1291) (domain or fragment)
  binding: binds
